Source: PubChem BioAssay AID1259405 (NCATS, 2018)
Aim: 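Mouse-designed siRNAs used to find CHO productivity engineering targets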 (primary screen). Cell system: Chinese hamster CHO-K1 ovary cells with stable secreted eGFP expression. Reagents: single siRNA against mouse genes, 0.8 pmol siRNA per well (2 µl of 400 nM stock). Duration: 3 days. Read-out: 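Per-well intracellular GFP measured by laser scanning cytometry, plus viability from ATP luminescence, each relative to plate median of non-targeting control wells, in %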. Direction: GFP, % of control: higher = more GFP per well, higher productivity; viability (ATP), % of control: higher = more viable cells (more ATP). Call rule: 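Called active when intracellular GFP, relative to negative control, is at or above 120%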.
The whole screen tested about 50,000 reagents; below is a random part of them. In the full data, about 4,000 (8%) got an active call. 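Mouse siRNA library applied to hamster cells; one well for each siRNA.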 Entries without a mark were called inactive. The numbers tell different reagents against one gene apart.

For Cstf1 #1, how do the results read?
GFP, % of control: 45.8; viability (ATP), % of control: 68.4

With Cstf1 #2, what does the deposit list?
GFP, % of control: 153 (active); viability (ATP), % of control: 28.5

What is on record for Cstf1 #3?
GFP, % of control: 129 (active); viability (ATP), % of control: 98.6

What did the screen give for Scgb2b26 #1?
GFP, % of control: 87; viability (ATP), % of control: 74.3

Which result is listed for Scgb2b26 #2?
GFP, % of control: 60.6; viability (ATP), % of control: 66.9

With Scgb2b26 #3, how do the results read?
GFP, % of control: 80.4; viability (ATP), % of control: 93.5

With Aldh7a1 #1, what does the deposit list?
GFP, % of control: 88.4; viability (ATP), % of control: 78.4

What is on record for Aldh7a1 #2?
GFP, % of control: 99.3; viability (ATP), % of control: 93.3

For Aldh7a1 #3, what was measured?
GFP, % of control: 65.7; viability (ATP), % of control: 69.8

With Myo1b #1, what does the deposit list?
GFP, % of control: 23.4; viability (ATP), % of control: 31.5

With Myo1b #2, how do the results read?
GFP, % of control: 73.9; viability (ATP), % of control: 69.4

Which result is listed for Slc25a29 #1?
GFP, % of control: 126 (active); viability (ATP), % of control: 74.1

For Slc25a29 #2, what was measured?
GFP, % of control: 119; viability (ATP), % of control: 104

For Slc25a29 #3, how do the results read?
GFP, % of control: 51.9; viability (ATP), % of control: 34.9

What is on record for Atp5f1d #1?
GFP, % of control: 52.9; viability (ATP), % of control: 65.3

What is on record for Atp5f1d #2?
GFP, % of control: 75.2; viability (ATP), % of control: 96.4

Which result is listed for Atp5f1d #3?
GFP, % of control: 40.1; viability (ATP), % of control: 75.7

For Exosc5 #1, what does the deposit list?
GFP, % of control: 68.1; viability (ATP), % of control: 72.4

With Exosc5 #2, how do the results read?
GFP, % of control: 118; viability (ATP), % of control: 92.9

With Exosc5 #3, how do the results read?
GFP, % of control: 92.2; viability (ATP), % of control: 53.8

Active calls (from the list above):
Cstf1 #2 → GFP, % of control: 153 (active); viability (ATP), % of control: 28.5
Cstf1 #3 → GFP, % of control: 129 (active); viability (ATP), % of control: 98.6
Slc25a29 #1 → GFP, % of control: 126 (active); viability (ATP), % of control: 74.1

Continued.
Which result is listed for Tktl2 #1?
GFP, % of control: 53.4; viability (ATP), % of control: 74

For Tktl2 #2, what was measured?
GFP, % of control: 65.2; viability (ATP), % of control: 58.2

What did the screen give for Tktl2 #3?
GFP, % of control: 82.4; viability (ATP), % of control: 81.8

With Tdo2 #1, what does the deposit list?
GFP, % of control: 98.3; viability (ATP), % of control: 100

For Tdo2 #2, how do the results read?
GFP, % of control: 63; viability (ATP), % of control: 48.6

Which result is listed for Tdo2 #3?
GFP, % of control: 45.3; viability (ATP), % of control: 105

For Stfa1 #1, what was measured?
GFP, % of control: 105; viability (ATP), % of control: 107

For Stfa1 #2, what was measured?
GFP, % of control: 66.8; viability (ATP), % of control: 65.7

How did the screen score Stfa1 #3?
GFP, % of control: 114; viability (ATP), % of control: 83.6

What is on record for Acss3 #1?
GFP, % of control: 28.5; viability (ATP), % of control: 45.4

How did the screen score Acss3 #2?
GFP, % of control: 66.7; viability (ATP), % of control: 82.1

Which result is listed for Acss3 #3?
GFP, % of control: 53.1; viability (ATP), % of control: 63.5

What is on record for H2bc26 #1?
GFP, % of control: 87.5; viability (ATP), % of control: 113

With H2bc26 #2, how do the results read?
GFP, % of control: 81.2; viability (ATP), % of control: 83.4

With H2bc26 #3, what does the deposit list?
GFP, % of control: 111; viability (ATP), % of control: 85.3

How did the screen score Npy2r #1?
GFP, % of control: 50.8; viability (ATP), % of control: 64.8

For Npy2r #2, what does the deposit list?
GFP, % of control: 77; viability (ATP), % of control: 60.7

For Npy2r #3, what was measured?
GFP, % of control: 76.7; viability (ATP), % of control: 65.6

How did the screen score Itgav #1?
GFP, % of control: 65.7; viability (ATP), % of control: 60.5

Which result is listed for Itgav #2?
GFP, % of control: 144 (active); viability (ATP), % of control: 101
